Values of other authors as cited in patent publication US8586029B2, “Prevention or treatment of immune-relevant disease by modification of microfloral populations” (Trustees of Dartmouth College, priority 2008, dated 2013).
At least one compound was matched to its structure with a doubt left.

System: EAE
Settings: combined with glatiramer acetate or IFN-β

Compound: CN(C)c1ccc(O)c2c1C[C@H]1C[C@H]3[C@H](N(C)C)C(O)=C(C(N)=O)C(=O)[C@@]3(O)C(O)=C1C2=O [Minocycline]
- protection against EAE: partial protection
